Measured values: paper PMC8894380
Results are given in words; binding and its absence hold for the method and conditions named. In cells and extracts the contact can be indirect. These calls come from enrichment with a bait or labelling near it, and not all partners need be listed. Where a sequence is shown, tags or fusion partners need not be part of it.

B1: SNRNP40 (protein, UniProt Q96DI7 1-357)
chain: MIEQQKRKGPELPLVPVKRQRHELLLGAGSGPGAGQQQATPGALLQAGPPRCSSLQAPIMLLSGHEGEVYCCKFHPNGSTLASAGFDRLILLWNVYGDCDNYATLKGHSGAVMELHYNTDGSMLFSASTDKTVAVWDSETGERVKRLKGHTSFVNSCYPARRGPQLVCTGSDDGTVKLWDIRKKAAIQTFQNTYQVLAVTFNDTSDQIISGGIDNDIKVWDLRQNKLTYTMRGHADSVTGLSLSSEGSYLLSNAMDNTVRVWDVRPFAPKERCVKIFQGNVHNFEKNLLRCSWSPDGSKIAAGSADRFVYVWDTTSRRILYKLPGHAGSINEVAFHPDEPIIISASSDKRLYMGEIQ
B2: SYF1 (protein, UniProt Q9HCS7 1-855)
chain: MVVMARLSRPERPDLVFEEEDLPYEEEIMRNQFSVKCWLRYIEFKQGAPKPRLNQLYERALKLLPCSYKLWYRYLKARRAQVKHRCVTDPAYEDVNNCHERAFVFMHKMPRLWLDYCQFLMDQGRVTHTRRTFDRALRALPITQHSRIWPLYLRFLRSHPLPETAVRGYRRFLKLSPESAEEYIEYLKSSDRLDEAAQRLATVVNDERFVSKAGKSNYQLWHELCDLISQNPDKVQSLNVDAIIRGGLTRFTDQLGKLWCSLADYYIRSGHFEKARDVYEEAIRTVMTVRDFTQVFDSYAQFEESMIAAKMETASELGREEEDDVDLELRLARFEQLISRRPLLLNSVLLRQNPHHVHEWHKRVALHQGRPREIINTYTEAVQTVDPFKATGKPHTLWVAFAKFYEDNGQLDDARVILEKATKVNFKQVDDLASVWCQCGELELRHENYDEALRLLRKATALPARRAEYFDGSEPVQNRVYKSLKVWSMLADLEESLGTFQSTKAVYDRILDLRIATPQIVINYAMFLEEHKYFEESFKAYERGISLFKWPNVSDIWSTYLTKFIARYGGRKLERARDLFEQALDGCPPKYAKTLYLLYAQLEEEWGLARHAMAVYERATRAVEPAQQYDMFNIYIKRAAEIYGVTHTRGIYQKAIEVLSDEHAREMCLRFADMECKLGEIDRARAIYSFCSQICDPRTTGAFWQTWKDFEVRHGNEDTIKEMLRIRRSVQATYNTQVNFMASQMLKVSGSATGTVSDLAPGQSGMDDMKLLEQRAEQLAAEAERDQPLRAQSKILFVRSDASREELAELAQQVNPEEIQLGEDEDEDEMDLEPNEVRLEQQSVPAAVFGSLKED
B3: GPKOW (protein, UniProt Q92917 1-476)
chain: MADSKEGVLPLTAASTAPISFGFTRTSARRRLADSGDGAGPSPEEKDFLKTVEGRELQSVKPQEAPKELVIPLIQNGHRRQPPARPPGPSTDTGALADGVVSQAVKELIAESKKSLEERENAGVDPTLAIPMIQKGCTPSGEGADSEPRAETVPEEANYEAVPVEAYGLAMLRGMGWKPGEGIGRTFNQVVKPRVNSLRPKGLGLGANLTEAQALTPTGPSRMPRPDEEQEKDKEDQPQGLVPGGAVVVLSGPHRGLYGKVEGLDPDNVRAMVRLAVGSRVVTVSEYYLRPVSQQEFDKNTLDLRQQNGTASSRKTLWNQELYIQQDNSERKRKHLPDRQDGPAAKSEKAAPRSQHWLHRDLRVRFVDNMYKGGQYYNTKMIIEDVLSPDTCVCRTDEGRVLEGLREDMLETLVPKAEGDRVMVVLGPQTGRVGHLLSRDRARSRALVQLPRENQVVELHYDAICQYMGPSDTDDD
B4: CWC27 (protein, UniProt Q6UX04 1-472)
chain: MSNIYIQEPPTNGKVLLKTTAGDIDIELWSKEAPKACRNFIQLCLEAYYDNTIFHRVVPGFIVQGGDPTGTGSGGESIYGAPFKDEFHSRLRFNRRGLVAMANAGSHDNGSQFFFTLGRADELNNKHTIFGKVTGDTVYNMLRLSEVDIDDDERPHNPHKIKSCEVLFNPFDDIIPREIKRLKKEKPEEEVKKLKPKGTKNFSLLSFGEEAEEEEEEVNRVSQSMKGKSKSSHDLLKDDPHLSSVPVVESEKGDAPDLVDDGEDESAEHDEYIDGDEKNLMRERIAKKLKKDTSANVKSAGEGEVEKKSVSRSEELRKEARQLKRELLAAKQKKVENAAKQAEKRSEEEEAPPDGAVAEYRREKQKYEALRKQQSKKGTSREDQTLALLNQFKSKLTQAIAETPENDIPETEVEDDEGWMSHVLQFEDKSRKVKDASMQDSDTFEIYDPRNPVNKRRREESKKLMREKKERR
B5: PRPF6 (protein, UniProt O94906 1-941)
chain: MNKKKKPFLGMPAPLGYVPGLGRGATGFTTRSDIGPARDANDPVDDRHAPPGKRTVGDQMKKNQAADDDDEDLNDTNYDEFNGYAGSLFSSGPYEKDDEEADAIYAALDKRMDERRKERREQREKEEIEKYRMERPKIQQQFSDLKRKLAEVTEEEWLSIPEVGDARNKRQRNPRYEKLTPVPDSFFAKHLQTGENHTSVDPRQTQFGGLNTPYPGGLNTPYPGGMTPGLMTPGTGELDMRKIGQARNTLMDMRLSQVSDSVSGQTVVDPKGYLTDLNSMIPTHGGDINDIKKARLLLKSVRETNPHHPPAWIASARLEEVTGKLQVARNLIMKGTEMCPKSEDVWLEAARLQPGDTAKAVVAQAVRHLPQSVRIYIRAAELETDIRAKKRVLRKALEHVPNSVRLWKAAVELEEPEDARIMLSRAVECCPTSVELWLALARLETYENARKVLNKARENIPTDRHIWITAAKLEEANGNTQMVEKIIDRAITSLRANGVEINREQWIQDAEECDRAGSVATCQAVMRAVIGIGIEEEDRKHTWMEDADSCVAHNALECARAIYAYALQVFPSKKSVWLRAAYFEKNHGTRESLEALLQRAVAHCPKAEVLWLMGAKSKWLAGDVPAARSILALAFQANPNSEEIWLAAVKLESENDEYERARRLLAKARSSAPTARVFMKSVKLEWVQDNIRAAQDLCEEALRHYEDFPKLWMMKGQIEEQKEMMEKAREAYNQGLKKCPHSTPLWLLLSRLEEKIGQLTRARAILEKSRLKNPKNPGLWLESVRLEYRAGLKNIANTLMAKALQECPNSGILWSEAIFLEARPQRRTKSVDALKKCEHDPHVLLAVAKLFWSQRKITKAREWFHRTVKIDSDLGDAWAFFYKFELQHGTEEQQEEVRKRCESAEPRHGELWCAVSKDIANWQKKIGDILRLVAGRIKNTF
B6: CWC22 (protein, UniProt Q9HCG8 1-908)
chain: MKSSVAQIKPSSGHDRRENLNSYQRNSSPEDRYEEQERSPRDRDYFDYSRSDYEHSRRGRSYDSSMESRNRDREKRRERERDTDRKRSRKSPSPGRRNPETSVTQSSSAQDEPATKKKKDELDPLLTRTGGAYIPPAKLRMMQEQITDKNSLAYQRMSWEALKKSINGLINKVNISNISIIIQELLQENIVRGRGLLSRSVLQAQSASPIFTHVYAALVAIINSKFPQIGELILKRLILNFRKGYRRNDKQLCLTASKFVAHLINQNVAHEVLCLEMLTLLLERPTDDSVEVAIGFLKECGLKLTQVSPRGINAIFERLRNILHESEIDKRVQYMIEVMFAVRKDGFKDHPIILEGLDLVEEDDQFTHMLPLEDDYNPEDVLNVFKMDPNFMENEEKYKAIKKEILDEGDTDSNTDQDAGSSEEDEEEEEEEGEEDEEGQKVTIHDKTEINLVSFRRTIYLAIQSSLDFEECAHKLLKMEFPESQTKELCNMILDCCAQQRTYEKFFGLLAGRFCMLKKEYMESFEGIFKEQYDTIHRLETNKLRNVAKMFAHLLYTDSLPWSVLECIKLSEETTTSSSRIFVKIFFQELCEYMGLPKLNARLKDETLQPFFEGLLPRDNPRNTRFAINFFTSIGLGGLTDELREHLKNTPKVIVAQKPDVEQNKSSPSSSSSASSSSESDSSDSDSDSSDSSSESSSEESDSSSISSHSSASANDVRKKGHGKTRSKEVDKLIRNQQTNDRKQKERRQEHGHQETRTERERRSEKHRDQNSSGSNWRDPITKYTSDKDVPSERNNYSRVANDRDQEMHIDLENKHGDPKKKRGERRNSFSENEKHTHRIKDSENFRRKDRSKSKEMNRKHSGSRSDEDRYQNGAERRWEKSSRYSEQSRESKKNQDRRREKSPAKQK

These binders were tested against T1, C9ORF78 with C-terminal 3xFlag-His6-Biotin-His6 tag (human) (UniProt Q9NZ63) (assay: affinity purification with mass spectrometry; Flag-IP (Flag M2 affinity gel) from 500 ug nuclear extract of Flp-In T-REx 293 stable cells, IP buffer 150 mM NaCl with benzonase, eluted with 3xFlag peptide; label-free LC-MS against control IP of unmodified cells).
T1 sequence: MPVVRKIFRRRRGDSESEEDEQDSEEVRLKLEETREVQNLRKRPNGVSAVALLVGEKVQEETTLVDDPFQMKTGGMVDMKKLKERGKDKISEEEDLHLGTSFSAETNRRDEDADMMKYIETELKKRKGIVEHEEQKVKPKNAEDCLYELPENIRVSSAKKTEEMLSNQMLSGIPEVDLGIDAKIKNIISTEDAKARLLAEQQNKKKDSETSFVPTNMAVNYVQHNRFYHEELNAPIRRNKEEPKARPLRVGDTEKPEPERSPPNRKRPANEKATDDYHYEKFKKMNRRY

binding, binds:
B1, B2, B3, B4, B5, B6
